No constants are given. Whether binding was seen depends on the method and setting. Binding seen in cells or lysates may run through a third protein. Binding calls can cover weak binding; strength is not graded here.
Target: canonical PHF21A (PHF21A-c), endogenous in MEF (mouse (endogenous in MEF)) (UniProt Q6ZPK0)
Test: co-IP

Amino acid sequences for entries named in this document (tags omitted). A change or cut given only in a name is not applied to a line headed by its entry.
UniProt Q6ZPK0: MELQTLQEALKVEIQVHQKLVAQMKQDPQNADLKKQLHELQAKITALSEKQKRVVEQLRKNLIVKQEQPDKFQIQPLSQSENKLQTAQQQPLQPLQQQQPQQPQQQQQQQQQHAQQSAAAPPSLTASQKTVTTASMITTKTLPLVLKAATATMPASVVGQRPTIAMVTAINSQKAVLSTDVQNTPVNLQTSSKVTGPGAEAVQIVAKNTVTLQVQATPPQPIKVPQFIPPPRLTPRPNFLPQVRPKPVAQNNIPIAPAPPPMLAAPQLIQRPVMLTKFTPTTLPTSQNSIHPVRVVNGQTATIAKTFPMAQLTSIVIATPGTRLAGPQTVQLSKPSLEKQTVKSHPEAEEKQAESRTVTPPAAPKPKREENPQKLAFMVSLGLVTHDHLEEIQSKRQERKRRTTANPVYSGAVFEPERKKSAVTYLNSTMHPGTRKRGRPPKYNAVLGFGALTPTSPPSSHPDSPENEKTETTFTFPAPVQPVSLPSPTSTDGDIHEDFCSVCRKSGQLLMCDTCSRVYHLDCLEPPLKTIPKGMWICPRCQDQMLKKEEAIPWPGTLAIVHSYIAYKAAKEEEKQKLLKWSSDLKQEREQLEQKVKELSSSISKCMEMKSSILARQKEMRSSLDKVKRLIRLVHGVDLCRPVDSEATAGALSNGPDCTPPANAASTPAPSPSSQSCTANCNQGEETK
UniProt P70288: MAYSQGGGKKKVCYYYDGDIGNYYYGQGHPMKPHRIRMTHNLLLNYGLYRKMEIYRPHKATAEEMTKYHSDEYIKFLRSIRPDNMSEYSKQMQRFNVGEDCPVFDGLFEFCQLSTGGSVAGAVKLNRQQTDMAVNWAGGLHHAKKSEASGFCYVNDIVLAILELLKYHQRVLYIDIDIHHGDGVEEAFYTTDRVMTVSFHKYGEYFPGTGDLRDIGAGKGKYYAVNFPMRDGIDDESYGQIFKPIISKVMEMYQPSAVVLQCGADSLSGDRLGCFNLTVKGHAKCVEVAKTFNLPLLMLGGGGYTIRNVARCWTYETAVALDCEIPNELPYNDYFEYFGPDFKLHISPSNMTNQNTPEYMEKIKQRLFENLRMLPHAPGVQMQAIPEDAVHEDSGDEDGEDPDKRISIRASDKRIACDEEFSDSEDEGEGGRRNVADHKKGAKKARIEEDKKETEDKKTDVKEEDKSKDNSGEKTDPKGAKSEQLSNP

binding: binds
Substance: HDAC2, endogenous (from UniProt P70288 1-488) (enzyme)

Source: article doi:10.1101/2023.10.20.563357
